From US20110262456A1, “METHOD OF TREATING ISCHEMIA REPERFUSION INJURY” (priority 2008, published 2011)
Some entries share one result that the patent states for a list of compounds. At least one compound was matched to its structure with a doubt left.

Test system: rabbit heart
Assay: Rabbit models of cardiac ischemia (protection, infarct size)
Type: in vivo

Row | Compound | protection
1 | N#Cc1c(N)nc(SCC(N)=O)c(C#N)c1-c1ccc(OCC2CC2)cc1 [BAY-60-6583] | 80-85%
2 | CCNC(=O)[C@H]1O[C@@H](n2cnc3c(N)ncnc32)[C@H](O)[C@@H]1O [NECA, 5′-N-ethylcarboxamidoadenosine] | 80-85%
